Experimental data: PubChem BioAssay AID1224826 (NIAID, 2016)
Aim: 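Regulators of Tlr4 signalling leading to Tnf-alpha expression in macrophages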 (primary screen). Cell system: RAW264.7 G9 macrophages from mouse bearing reporters for p65 (GFP) and the Tnf promoter (mCherry). Knock-down reagent: siRNA pool against mouse genes, 100 nM. Timing: 16 h of LPS stimulation, after 2 days of siRNA transfection. Conditions: bacterial lipopolysaccharide (Salmonella minnesota R595), 10 ng/ml. Measured: 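Nuclear mCherry signal of the Tnf promoter reporter measured by imaging after background removal, scaled to each plate median and turned into robust z-scores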. Reading the numbers: Tnf reporter robust z-score: higher = stronger Tnf promoter reporter signal after LPS. Rule for the call: 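Called active when robust z-score is at most -1.3, matching the median of the Tlr4 knock-down control, or over 3; control wells and wells with under 50 cells never active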. Calls: active = Tnf reporter clearly lowered or raised; inactive = no clear change in Tnf reporter.
The deposit covers about 17,000 reagents; shown is a random part of them. About 1,110 of all reagents (6.6%) count as active. 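Active means lowered or raised reporter signal; replicate intensities are raw and not normalised per plate.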 Not all columns of the deposit are shown.

For Ndufv3, how do the results read?
Tnf reporter robust z-score: 2.8; fewer than 50 cells in well: enough cells in well; Call: inactive

With Far2, what does the deposit list?
Tnf reporter robust z-score: -0.41; fewer than 50 cells in well: enough cells in well; Call: inactive

With Zbtb37, what was measured?
Tnf reporter robust z-score: 0.82; fewer than 50 cells in well: enough cells in well; Call: inactive

What did the screen give for Fastk?
Tnf reporter robust z-score: 0.59; fewer than 50 cells in well: enough cells in well; Call: inactive

What did the screen give for Tdrd6?
Tnf reporter robust z-score: -0.49; fewer than 50 cells in well: enough cells in well; Call: inactive

Just “Tnf reporter robust z-score” (2 entries from above):
Far2	-0.41
Zbtb37	0.82

The listing continues.
Which result is listed for Psme1?
Tnf reporter robust z-score: -0.91; fewer than 50 cells in well: enough cells in well; Call: inactive

With Slf1, what was measured?
Tnf reporter robust z-score: 0.28; fewer than 50 cells in well: enough cells in well; Call: inactive

How did the screen score Txk?
Tnf reporter robust z-score: -0.23; fewer than 50 cells in well: enough cells in well; Call: inactive

Which result is listed for Tas2r120?
Tnf reporter robust z-score: -1.42; fewer than 50 cells in well: enough cells in well; Call: active

What did the screen give for 9230106D20Rik (retired record)?
fewer than 50 cells in well: fewer than 50 cells per well; well left out of calls; Call: inactive

With Slc24a5, what does the deposit list?
Tnf reporter robust z-score: -0.97; fewer than 50 cells in well: enough cells in well; Call: inactive

Which result is listed for Ace?
fewer than 50 cells in well: fewer than 50 cells per well; well left out of calls; Call: inactive
